To fix the notation:
B1: Ab19 (antibody, human IgG1, V domains shown)
VH: EVQLVQSGAEVKKPGATVKISCKVSGYSFITYWISWVQQAPGKGLEWMGAIDPSDSDARYSPSFQGRVTITADTSTDTAYMELSSLRSEDTAVYYCAKSDPGYSGYSLLYGFDSWGQGTLVTVSS
VL: DIVMTQSPLSLPVTLGQPASISCRSSQSLVQRNGNTYLSWYQQRPGQPPRLLIYQVSNRYSGVPDRFSGSGSGTDFTLKISRVEAEDVGVYYCGQGAHLPLTFGQGTKVEIK
B2: Ab6 (antibody, human IgG1, V domains shown)
VH: EVQLVQSGAEVKKPGATVKISCKVSGYTFITYWISWVQQAPGKGLEWMGAIDPSDSDARYSPSFQGRVTITADTSTDTAYMELSSLRSEDTAVYYCAKSDPGYSGYSLLYGFDSWGQGTLVTVSS
VL: DVVMTQSPLSLPVTLGQPASISCRSSQSLVQRNGNTYLSWFQQRPGQPPRLLIYQVSNRYSGVPDRFSGSGSGTDFTLKISRVEAEDVGVYYCGQGAHLPLTFGQGTKVEIK
B3: Ab23 (antibody, human IgG1, V domains shown)
VH: EVQLVQSGAEVKKPGATVKISCKVSGYSFITYWISWVQQAPGKGLEWMGAIDPSDSDARYSPSFQGRVTITADKSTDTAYMELSSLRSEDTAVYYCAKSDPGYSGYSLLYGFDSWGQGTLVTVSS
VL: DVVMTQSPLSLPVTLGQPASISCRSSQSLVQRNGNTYLSWFQQRPGQSPRLLIYQVSNRYSGVPDRFSGSGSGTDFTLKISRVEAEDVGVYYCGQGAHLPLTFGQGTKVEIK
B4: Ab24 (antibody, human IgG1, V domains shown)
VH: EVQLVQSGAEVKKPGATVKISCKVSGYSFITYWISWVQQAPGKGLEWMGAIDPSDSDARYSPSFQGRVTITADKSTDTAYMELSSLRSEDTAVYYCAKSDPGYSGYSLLYGFDSWGQGTLVTVSS
VL: DVVMTQSPLSLPVTLGQPASISCRSSQSLVQRNGNTYLSWYQQRPGQSPRLLIYQVSNRYSGVPDRFSGSGSGTDFTLKISRVEAEDVGVYYCGQGAHLPLTFGQGTKVEIK
B5: Ab22 (antibody, human IgG1, V domains shown)
VH: EVQLVQSGAEVKKPGATVKISCKVSGYSFITYWISWVQQAPGKGLEWMGAIDPSDSDARYSPSFQGRVTITADKSTDTAYMELSSLRSEDTAVYYCAKSDPGYSGYSLLYGFDSWGQGTLVTVSS
VL: DIVMTQTPLSSPVTLGQPASISCRSSQSLVQRNGNTYLSWYQQRPGQPPRLLIYQVSNRYSGVPDRFSGSGAGTDFTLKISRVEAEDVGVYYCGQGAHLPLTFGQGTKVEIK
B6: Ab39 (antibody, human IgG1, V domains shown)
VH: EVQLVQSGAEVKKPGATVKISCKVSGYTFITYWISWVQQAPGKGLEWMGAIDPSDSDARYSPSFQGRVTITADKSTDTAYMELSSLRSEDTAVYYCAKSDPGYSGYSLLYGFDSWGQGTLVTVSS
VL: DIVMTQSPLSLPVTLGQPASISCRSSQSLVQRNGNTYLSWYQQRPGQPPRLLIYQVSNRYSGVPDRFSGSGSGTDFTLKISRVEAEDVGVYYCGQGAHLPLTFGQGTKVEIK
B7: Ab28 (antibody, human IgG1, V domains shown)
VH: EVQLVQSGAEVKKPGATVKISCKVSGYSFITYWISWVQQAPGKGLEWMGAIDPSDSDARYSPSFQGRVTITADKSTDTAYMELSSLRSEDTAVYYCAKSDPGYSGYSLLYGFDSWGQGTLVTVSS
VL: DIVMTQSPLSLPVTLGQPASISCRSSQSLVQRNGNTYLSWYQQRPGQSPRLLIYQVSNRYSGVPDRFSGSGSGTDFTLKISRVEAEDVGVYYCGQGAHLPLTFGQGTKVEIK
B8: Ab29 (antibody, human IgG1, V domains shown)
VH: EVQLVQSGAEVKKPGATVKISCKVSGYSFITYWISWVQQAPGKGLEWMGAIDPSDSDARYSPSFQGRVTITADKSTDTAYMELSSLRSEDTAVYYCAKSDPGYSGYSLLYGFDSWGQGTLVTVSS
VL: DIVMTQSPLSLPVTLGQPASISCRSSQSLVQRNGNTYLSWYQQRPGQPPRLLIYQVSNRYSGVPDRFSGSGSGTDFTLKISRVEAEDVGVYYCGQGAHLPLTFGQGTKVEIK
B9: Ab25 (antibody, human IgG1, V domains shown)
VH: EVQLVQSGAEVKKPGATVKISCKVSGYSFITYWISWVQQAPGKGLEWMGAIDPSDSDARYSPSFQGRVTITADKSTDTAYMELSSLRSEDTAVYYCAKSDPGYSGYSLLYGFDSWGQGTLVTVSS
VL: DVVMTQSPLSLPVTLGQPASISCRSSQSLVQRNGNTYLSWYQQRPGQPPRLLIYQVSNRYSGVPDRFSGSGSGTDFTLKISRVEAEDVGVYYCGQGAHLPLTFGQGTKVEIK
B10: Ab30 (antibody, human IgG1, V domains shown)
VH: EVQLVQSGAEVKKPGATVKISCKVSGYSFITYWISWVQQAPGKGLEWMGAIDPSDSDARYSPSFQGRVTITADKSTDTAYMELSSLRSEDTAVYYCAKSDPGYSGYSLLYGFDSWGQGTLVTVSS
VL: DIVMTQSPLSLPVTLGQPASISCRSSQSLVQRNGNTYLSWFQQRPGQPPRLLIYQVSNRYSGVPDRFSGSGSGTDFTLKISRVEAEDVGVYYCGQGAHLPLTFGQGTKVEIK
B11: Ab31 (antibody, human IgG1, V domains shown)
VH: EVQLVQSGAEVKKPGATVKISCKVSGYTFITYWISWVQQAPGKGLEWMGAIDPSDSDARYSPSFQGRVTITADKSTDTAYMELSSLRSEDTAVYYCAKSDPGYSGYSLLYGFDSWGQGTLVTVSS
VL: DIVMTQTPLSSPVTLGQPASISCRSSQSLVQRNGNTYLSWLQQRPGQPPRLLIYQVSNRYSGVPDRFSGSGAGTDFTLKISRVEAEDVGVYYCGQGAHLPLTFGQGTKVEIK
B12: Ab32 (antibody, human IgG1, V domains shown)
VH: EVQLVQSGAEVKKPGATVKISCKVSGYTFITYWISWVQQAPGKGLEWMGAIDPSDSDARYSPSFQGRVTITADKSTDTAYMELSSLRSEDTAVYYCAKSDPGYSGYSLLYGFDSWGQGTLVTVSS
VL: DIVMTQTPLSSPVTLGQPASISCRSSQSLVQRNGNTYLSWYQQRPGQPPRLLIYQVSNRYSGVPDRFSGSGAGTDFTLKISRVEAEDVGVYYCGQGAHLPLTFGQGTKVEIK
B13: Ab35 (antibody, human IgG1, V domains shown)
VH: EVQLVQSGAEVKKPGATVKISCKVSGYTFITYWISWVQQAPGKGLEWMGAIDPSDSDARYSPSFQGRVTITADKSTDTAYMELSSLRSEDTAVYYCAKSDPGYSGYSLLYGFDSWGQGTLVTVSS
VL: DVVMTQSPLSLPVTLGQPASISCRSSQSLVQRNGNTYLSWYQQRPGQPPRLLIYQVSNRYSGVPDRFSGSGSGTDFTLKISRVEAEDVGVYYCGQGAHLPLTFGQGTKVEIK
B14: Ab40 (antibody, human IgG1, V domains shown)
VH: EVQLVQSGAEVKKPGATVKISCKVSGYTFITYWISWVQQAPGKGLEWMGAIDPSDSDARYSPSFQGRVTITADKSTDTAYMELSSLRSEDTAVYYCAKSDPGYSGYSLLYGFDSWGQGTLVTVSS
VL: DIVMTQSPLSLPVTLGQPASISCRSSQSLVQRNGNTYLSWFQQRPGQPPRLLIYQVSNRYSGVPDRFSGSGSGTDFTLKISRVEAEDVGVYYCGQGAHLPLTFGQGTKVEIK
B15: Ab21 (antibody, human IgG1, V domains shown)
VH: EVQLVQSGAEVKKPGATVKISCKVSGYSFITYWISWVQQAPGKGLEWMGAIDPSDSDARYSPSFQGRVTITADKSTDTAYMELSSLRSEDTAVYYCAKSDPGYSGYSLLYGFDSWGQGTLVTVSS
VL: DIVMTQTPLSSPVTLGQPASISCRSSQSLVQRNGNTYLSWLQQRPGQPPRLLIYQVSNRYSGVPDRFSGSGAGTDFTLKISRVEAEDVGVYYCGQGAHLPLTFGQGTKVEIK
B16: Ab34 (antibody, human IgG1, V domains shown)
VH: EVQLVQSGAEVKKPGATVKISCKVSGYTFITYWISWVQQAPGKGLEWMGAIDPSDSDARYSPSFQGRVTITADKSTDTAYMELSSLRSEDTAVYYCAKSDPGYSGYSLLYGFDSWGQGTLVTVSS
VL: DVVMTQSPLSLPVTLGQPASISCRSSQSLVQRNGNTYLSWYQQRPGQSPRLLIYQVSNRYSGVPDRFSGSGSGTDFTLKISRVEAEDVGVYYCGQGAHLPLTFGQGTKVEIK
B17: Ab33 (antibody, human IgG1, V domains shown)
VH: EVQLVQSGAEVKKPGATVKISCKVSGYTFITYWISWVQQAPGKGLEWMGAIDPSDSDARYSPSFQGRVTITADKSTDTAYMELSSLRSEDTAVYYCAKSDPGYSGYSLLYGFDSWGQGTLVTVSS
VL: DVVMTQSPLSLPVTLGQPASISCRSSQSLVQRNGNTYLSWFQQRPGQSPRLLIYQVSNRYSGVPDRFSGSGSGTDFTLKISRVEAEDVGVYYCGQGAHLPLTFGQGTKVEIK
B18: Ab38 (antibody, human IgG1, V domains shown)
VH: EVQLVQSGAEVKKPGATVKISCKVSGYTFITYWISWVQQAPGKGLEWMGAIDPSDSDARYSPSFQGRVTITADKSTDTAYMELSSLRSEDTAVYYCAKSDPGYSGYSLLYGFDSWGQGTLVTVSS
VL: DIVMTQSPLSLPVTLGQPASISCRSSQSLVQRNGNTYLSWYQQRPGQSPRLLIYQVSNRYSGVPDRFSGSGSGTDFTLKISRVEAEDVGVYYCGQGAHLPLTFGQGTKVEIK
B19: Ab27 (antibody, human IgG1, V domains shown)
VH: EVQLVQSGAEVKKPGATVKISCKVSGYSFITYWISWVQQAPGKGLEWMGAIDPSDSDARYSPSFQGRVTITADKSTDTAYMELSSLRSEDTAVYYCAKSDPGYSGYSLLYGFDSWGQGTLVTVSS
VL: DIVMTQSPLSLPVTLGQPASISCRSSQSLVQRNGNTYLSWFQQRPGQSPRLLIYQVSNRYSGVPDRFSGSGSGTDFTLKISRVEAEDVGVYYCGQGAHLPLTFGQGTKVEIK
B20: Ab26 (antibody, human IgG1, V domains shown)
VH: EVQLVQSGAEVKKPGATVKISCKVSGYSFITYWISWVQQAPGKGLEWMGAIDPSDSDARYSPSFQGRVTITADKSTDTAYMELSSLRSEDTAVYYCAKSDPGYSGYSLLYGFDSWGQGTLVTVSS
VL: DVVMTQSPLSLPVTLGQPASISCRSSQSLVQRNGNTYLSWFQQRPGQPPRLLIYQVSNRYSGVPDRFSGSGSGTDFTLKISRVEAEDVGVYYCGQGAHLPLTFGQGTKVEIK
B21: Ab20 (antibody, human IgG1, V domains shown)
VH: EVQLVQSGAEVKKPGATVKISCKVSGYSFITYWISWVQQAPGKGLEWMGAIDPSDSDARYSPSFQGRVTITADTSTDTAYMELSSLRSEDTAVYYCAKSDPGYSGYSLLYGFDSWGQGTLVTVSS
VL: DIVMTQSPLSLPVTLGQPASISCRSSQSLVQRNGNTYLSWFQQRPGQPPRLLIYQVSNRYSGVPDRFSGSGSGTDFTLKISRVEAEDVGVYYCGQGAHLPLTFGQGTKVEIK

Chains of the proteins cited; added tags and fusions are not shown. Lines headed by an entry give the natural chain unless they say otherwise; changes in a name come on top.
UniProt P01138: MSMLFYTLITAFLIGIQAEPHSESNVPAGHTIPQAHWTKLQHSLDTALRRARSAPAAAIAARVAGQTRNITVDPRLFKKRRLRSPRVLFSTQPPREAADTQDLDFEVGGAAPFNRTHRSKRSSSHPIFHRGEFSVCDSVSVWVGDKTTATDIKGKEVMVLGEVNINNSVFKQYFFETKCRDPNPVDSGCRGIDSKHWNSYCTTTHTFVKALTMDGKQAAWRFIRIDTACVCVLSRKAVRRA

Results are given in words; binding and its absence hold for the method and conditions named. Some results given as binding are weak or reduced against the parent protein; the word gives no strength.

The target of the assay is recombinantly produced human-NGF (human, UniProt P01138 122-241, limits assumed). The assay can be described thus: NGF binding ELISA. For orientation: In an ELISA, binding on a coated surface is turned into a signal by an enzyme label.
Consider B1, for which the binding entry is recorded as “binds”.

For B2, the binding result is given as “binds”.

In the case of B3, the binding result is recorded as “binds”.

As to B4, the binding entry was “binds”.

Take B5: the binding entry is reported as “binds”.

Take B6: the binding entry is listed as “binds”.

B7: the binding result is given as “binds”.

On to B8, for which the binding result is “binds”.

With B9, the binding entry is reported as “binds”.

Consider B10, for which the binding result is reported as “binds”.

In the case of B11, the binding entry is given as “binds”.

Turning to B12, the binding entry is “binds”.

As for B13, the binding result is “binds”.

Consider B14, for which the binding entry was “binds”.

For the molecule B15, the binding entry is reported as “binds”.

Turning to B16, the binding entry is recorded as “binds”.

As to B17, the binding entry is given as “binds”.

On to B18, for which the binding result is “binds”.

Regarding B19, the binding entry was “binds”.

For the molecule B20, the binding entry is recorded as “binds”.

As to B21, the binding entry is on record as “binds”.

Values taken from patent US20230220057A1 (STAIDSON BEIJING BIOPHARMACEUTICALS, published 2023).
